The values that follow come from US20230227903.

The exact form of at least one protein or probe is not confirmed. Where a protein sequence is shown, tags need not be part of it.

The target in data set [1] is T1, Dda helicase (Enterobacteria phage T4) (UniProt P32270).
T1 sequence (limits assumed): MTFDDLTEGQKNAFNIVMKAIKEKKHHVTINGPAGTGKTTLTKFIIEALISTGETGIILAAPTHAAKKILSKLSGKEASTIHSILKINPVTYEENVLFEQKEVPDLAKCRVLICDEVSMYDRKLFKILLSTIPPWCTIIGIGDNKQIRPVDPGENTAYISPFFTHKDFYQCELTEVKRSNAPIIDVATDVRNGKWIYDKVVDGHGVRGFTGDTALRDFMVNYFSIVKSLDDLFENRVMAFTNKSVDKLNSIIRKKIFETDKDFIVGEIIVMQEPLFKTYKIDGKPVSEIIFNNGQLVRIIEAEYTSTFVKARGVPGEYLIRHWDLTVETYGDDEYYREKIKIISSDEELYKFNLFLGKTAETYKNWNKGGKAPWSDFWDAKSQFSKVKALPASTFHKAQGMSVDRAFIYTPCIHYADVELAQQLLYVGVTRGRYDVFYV
The experiment in a line: activity assay. The settings on record: iSp18, BNA in SEQ 30, 30 x 3' C3 spacers in SEQ 33, median translocation speed, nanopore.

Data set [2] addresses T1, Dda helicase (Enterobacteria phage T4). The experiment in a line: binding assay. The conditions noted are these: 3.6 kb SEQ 20 analyte.
In data set [3] the target is T2, Dda helicase closed with bismaleimide/disulfide linker (BMOE) (Enterobacteria phage T4) (UniProt P32270).
T2 sequence (limits assumed): T1 sequence (limits assumed)
The experiment in a line: activity assay. The conditions noted are these: iSp9, BNA in SEQ 69, median time between re-reads, 180 mV, variant of Y-adapter C3 leader SEQ 70.

Take “GTTATTCAAGACTTCTTTAATACACTTTTTTTTTTAATGTACTTCGTTCAGTTACGTATTGCTTTGGCGTCTGCTTGGGTGTTTAACCT / GGTTAAACACCCAAGCAGACGCCTTTGAGGCGAGCGGTCAA / GCAATACGTAACTGAACGAAGTACATT / GTGTATTAAAGAAGTCTTGAATAAC [Y-adapter Examples 6-8]”: the activity on this sequence in data set [1] (120 mV, lambda fragments ligated) was determined as 319 bp/s; in data set [1] (140 mV), 259 bp/s; in data set [1] (160 mV), 196 bp/s.
As for “GTTATTCAAGACTTCTTTAATACACTTTTTTTTTTAATGTACTTCGTTCAGTTACGTATTGCTTTGGCGTCTGCTTGGGTGTTTAACCT / GGTTAAACACCCAAGCAGACGCCTTTGAGGCGAGCGGTCAATTTTTTTTTTTTTTTTTTTT / GCAATACGTAACTGAACGAAGTACATT / GTGTATTAAAGAAGTCTTGAATAAC [Y-adapter Example 5]”, the binding result in data set [2] (iSp18, BNA in SEQ 30 and 31, loaded and stalled, controlled movement after destalling) was “binds”.
In turn, “GTTATTCAAGACTTCTTTAATACACTTTTTTTTTTAATGTACTTCGTTCAGTTACGTATTGCTTTGGCGTCTGCTTGGGTGTTTAACCT / GTGTATTAAAGAAGTCTTGAATAACTTTGAGGCGAGCGGTCAA / TTTGCAATACGTAACTGAACGAAGTACATT / GGTTAAACACCCAAGCAGACGCCTTTUUUUUU [Y-adapter leader SEQ 71]” registered an activity on this sequence in data set [3] (mU x6 then C3 spacers, dropback 812 bases) of 123 s.
With “GTTATTCAAGACTTCTTTAATACACTTTTTTTTTTAATGTACTTCGTTCAGTTACGTATTGCTTTGGCGTCTGCTTGGGTGTTTAACCT / GTGTATTAAAGAAGTCTTGAATAACTTTGAGGCGAGCGGTCAA / TTTGCAATACGTAACTGAACGAAGTACATT / GGTTAAACACCCAAGCAGACGCCUU [Y-adapter leader SEQ 72]”, in data set [3] (mU x2 then C3 spacers, dropback 724 bases), the activity on this sequence worked out at 79.4 s.
Regarding “TTTTTTTTTTAATGTACTTCGTTCAGTTACGTATTGCT / GCAATACGTAACTGAACGAAGTACATTTTTGAGGCGAGCGGTCAATTTTTTTTTTTTTTTTTTTT [Y-adapter Example 1]”, the binding result in data set [2] (5' biotin-TEG, iSp18 on top strand, BNA A, MeC, A, T, T in bottom strand, loaded and stalled on adapter, 5'-3' translocation out of nanopore after destalling) was “binds”.
